Hit rate of the full screen: of about 330,000 compounds, about 1,000 (0.3%) were called active. The inconclusive results got no clear call from the source; some entries with a clear call stand among them for comparison. Calls follow the shape of the dose curve; as a rule, active = well fitted inhibition curve with a large enough effect; inconclusive = small, poorly fitted or top-dose-only effect; inactive = no such curve, though single readings can be large or run the other way; tested in mouse RAW 264.7 cells. Where the call is inconclusive, the potency comes from a doubtful curve fit.
Experiment: qHTS for Inhibitors of Cell Surface uPA Generation; also: nearly all actives have a fitted effect of over 55% in size
Details: cell surface uPA generation assay; series mostly up to 38.3 µM; activity change, negative = inhibition: at the top concentration
Outline: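 RAW 264.7 cells (4000/well) were plated overnight at 37 C and then given compounds in a 1:5 series (up to 38.3 uM final) plus reagent for 24 h. Intracellular ATP was measured by ATP-Lite luminescence and stays elevated when uPA-dependent LF entry is blocked.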
% is scaled to controls: 0 for no effect and ±100 for the full control effect; potency is read from the fitted curve at half-maximal effect.

For `O=C(NCC1CCCO1)c1ccccc1NS(=O)(=O)c1cccc([N+](=O)[O-])c1` (stereo not drawn), which Potency is on record?
Its Potency is inconclusive: 0.501 µM [inhibitor, full curve, poor fit].

For `C#CCOCCOCCOCCNc1nc(N2CCN(C(=O)CCCCCCCCCCNC(=O)Cn3cc(CCCCCN)nn3)CC2)nc(N2CCN(C(=O)CCCCCCCCCCNC(=O)[C@H]([C@@H](C)CC)n3cc(CCCCN=C(N)N)nn3)CC2)n1`, which Potency is on record?
The Potency was inconclusive: 28.2 µM [inhibitor, single point].

Which Potency does the source give for `COc1ccc(Cl)cc1/C=C(\C#N)C(N)=O` here?
Its Potency is inconclusive: 12.6 µM [inhibitor, partial curve, poor fit].

For `Cc1ccc(-c2nnc(N3CCC(C)CC3)c3ccccc23)cc1`, which Potency is on record?
The Potency was inconclusive: 20 µM [inhibitor, single point].

Which Potency does the source give for `Cc1cc(Br)c(OCc2ccc(C(=O)N/N=C/c3ccc[nH]3)cc2)c(Br)c1` here?
Its Potency is active: 0.178 µM.

With `C#CC(C)(CC)NC(=O)c1cc2cccc(CC=C)c2oc1=O` (stereo not drawn) as the compound, how does the “activity change, negative = inhibition” value read?
Its value is inactive: -3.97%.

For `CCOC(=O)c1c(C)[nH]c(C)c1C(=O)COC(=O)c1ccc([N+](=O)[O-])s1`, which Potency is on record?
Its Potency is inconclusive: 11.2 µM [inhibitor, single point].

For `Cc1ccccc1-n1c(Cn2c(=O)sc3ccccc32)nnc1SCC(=O)N1CCCC1`, which “activity change, negative = inhibition” value is on record?
Its value is inactive: -10%.

With `CCn1c(SCC(=O)NC2CC2)nnc1C(C)Oc1ccccc1` (stereo not drawn) as the compound, how does the “activity change, negative = inhibition” value read?
Its value is inactive: -5.03%.

With `CC(C)C[C@H](NC(=O)c1nc[nH]c1C(=O)NCC(=O)OCc1ccccc1)C(=O)OCc1ccccc1` as the compound, how does the Potency read?
Its Potency is inconclusive: 5.62 µM [inhibitor, partial curve].

With `Clc1ccc(CSc2nnc(-c3ccncc3)o2)c(Cl)c1` as the compound, how does the “activity change, negative = inhibition” value read?
Its value is inactive: -1.58%.

With `O=c1c2nccnc2[nH]c(=S)n1Cc1ccccc1` as the compound, how does the “activity change, negative = inhibition” value read?
The value was inactive: -4.61%.

With `CCN(C[C@H]1N[C@@](Cc2ccccc2)(C(=O)OC)[C@H]2C(=O)N(Cc3ccccc3)C(=O)[C@@H]12)C(=O)Nc1ccc(C)cc1` as the compound, how does the Potency read?
Its Potency is inconclusive: 28.2 µM [inhibitor, single point].

Which Potency does the source give for `CN(C)NC(=O)c1ccc([N+](=O)[O-])s1` here?
The Potency was inconclusive: 12.6 µM [inhibitor, single point].

For `COc1ccc(CN(CCC#N)CCC2(c3ccccc3)CC(C)N(C)CC2C)cc1OC` (stereo not drawn), which “activity change, negative = inhibition” value is on record?
The value was inactive: -2.34%.

With `CCn1ncc(Br)c1C(=O)Nc1c(C)nn(Cc2c(F)c(F)c(F)c(F)c2F)c1C` as the compound, how does the “activity change, negative = inhibition” value read?
Its value is inactive: -3.5%.

For `CCSc1ccc([C@@H]2[C@H]3C(=O)N(C)C(=O)[C@H]3[C@]3(C(=O)OC)CCCCN23)cc1`, which Potency is on record?
The Potency was inconclusive: 11.2 µM [inhibitor, single point].

For `Nc1nc(-c2nc3ccccc3[nH]2)cs1`, which “activity change, negative = inhibition” value is on record?
Its value is inactive: -6.68%.

Which Potency does the source give for `CCn1nc(C)c(C(=O)Nc2cc(Oc3ccc(Cl)cc3)cc([N+](=O)[O-])c2)c1C` here?
Its Potency is inconclusive: 12.6 µM [inhibitor, single point].

For `Cc1ccc2cc(C#N)c(N3CCCC3)nc2c1C`, which “activity change, negative = inhibition” value is on record?
Its value is inactive: 9.12%.

Which Potency does the source give for `O=C1OCCC1Sc1nnc(-c2ccc3c(c2)OCO3)o1` (stereo not drawn) here?
The Potency was inconclusive: 3.55 µM [inhibitor, partial curve, poor fit].

For `Cc1ccc(C)c(OCc2cc(C(=O)N3CCOCC3)no2)c1`, which Potency is on record?
The Potency was inconclusive: 12.6 µM [inhibitor, single point].

For `CC(SCC(=O)Nc1ccccc1Br)c1nc2ccccc2c(=O)[nH]1` (stereo not drawn), which “activity change, negative = inhibition” value is on record?
Its value is inactive: -6.04%.

Which Potency does the source give for `O=C(NCCCN1CCCC1=O)c1cccc(NS(=O)(=O)c2ccc(Br)cc2)c1` here?
Its Potency is inconclusive: 12.6 µM [inhibitor, partial curve, poor fit].

With `Cc1cc(Nc2cccc(Cl)c2)nc(NCc2ccccc2)n1` as the compound, how does the Potency read?
Its Potency is inconclusive: 11.2 µM [inhibitor, partial curve, poor fit].

For `O=[N+]([O-])c1cccc(S(=O)(=O)c2ccc(NCCOCCO)c([N+](=O)[O-])c2)c1`, which “activity change, negative = inhibition” value is on record?
Its value is inactive: -3.83%.

Which “activity change, negative = inhibition” value does the source give for `COc1cc2c(cc1OC)C(c1ccccc1C)CC(=O)N2` (stereo not drawn) here?
Its value is inactive: -4.29%.

Which Potency does the source give for `CCn1c(SCC(=O)N2CCCc3ccccc32)nc2c(c1=O)SC(C)C2` (stereo not drawn) here?
Its Potency is inconclusive: 3.16 µM [inhibitor, full curve, poor fit].

With `O=C(Nc1nc(-c2ccccc2)cs1)C1CCCCN1S(=O)(=O)c1ccccc1` (stereo not drawn) as the compound, how does the Potency read?
The Potency was inconclusive: 6.31 µM [inhibitor, partial curve, poor fit].

For `COc1ccccc1CCC(=O)Nc1ncc(C)s1`, which Potency is on record?
The Potency was inconclusive: 8.91 µM [inhibitor, single point].

With `O=C(COC(=O)c1ccccn1)NCCc1ccc(Cl)cc1` as the compound, how does the “activity change, negative = inhibition” value read?
The value was inactive: 3.02%.

For `Nc1n[nH]c2cc(=O)n(-c3cccc(C(F)(F)F)c3)nc12`, which Potency is on record?
The Potency was inconclusive: 7.94 µM [inhibitor, partial curve, poor fit].

Which Potency does the source give for `COc1ccc(C)cc1Nc1n[n+](-c2ccccc2)c(-c2c(Cl)cccc2Cl)s1` here?
Its Potency is inconclusive: 20 µM [inhibitor, single point].

With `CC(=O)c1ccc2c(c1)C1C=CCC1C(c1cc3c(cc1Br)OCO3)N2` (stereo not drawn) as the compound, how does the Potency read?
The Potency was inconclusive: 1.26 µM [inhibitor, full curve, poor fit].

With `Cc1cc(C)c(C)c(OC(=O)c2sc(Cl)nc2C)c1` as the compound, how does the “activity change, negative = inhibition” value read?
The value was inactive: -9.85%.

Which “activity change, negative = inhibition” value does the source give for `O=c1cc(CSc2nc(NCc3ccccc3)c3ccccc3n2)nc2ccc(Cl)cn12` here?
The value was inactive: 23%.

For `COc1cccc(-c2nc3ccc(C(=O)NC(C)Cc4cccnc4)cc3o2)c1` (stereo not drawn), which “activity change, negative = inhibition” value is on record?
Its value is inactive: -29.9%.

Which “activity change, negative = inhibition” value does the source give for `CCOC(=O)c1ccc(S(=O)(=O)N2CCC(C(=O)N3CCN(c4ccccc4OC)CC3)CC2)cc1` here?
The value was inactive: -8%.

Which Potency does the source give for `Cc1ccc(C)c(Sc2ccc(NC(=O)CCl)cc2)c1` here?
The Potency was inconclusive: 3.98 µM [inhibitor, full curve, poor fit].

For `COc1ccc(CNC(=O)COC(=O)CCOc2ccccc2)cc1`, which “activity change, negative = inhibition” value is on record?
The value was inactive: 3.71%.

For `O=C(NCCc1ccccc1)C(=O)NCC1CCCN1S(=O)(=O)c1ccccc1` (stereo not drawn), which Potency is on record?
Its Potency is inconclusive: 5.62 µM [inhibitor, partial curve, poor fit].

Which Potency does the source give for `OCc1ccc(N=Nc2ccccc2)cc1` here?
Its Potency is inconclusive: 10 µM [inhibitor, partial curve, poor fit].

With `c1cncc(-c2nc(-c3ccc4c(c3)OCCO4)cs2)c1` as the compound, how does the Potency read?
The Potency was inconclusive: 6.31 µM [inhibitor, partial curve].

For `CC(/C=C1\SC(=S)N(CCC(=O)Nc2cccc(C(=O)O)c2)C1=O)=C\c1ccccc1`, which “activity change, negative = inhibition” value is on record?
The value was inactive: 1.23%.

For `CCc1ccccc1OCC(=O)Nc1nc(-c2cccnc2)cs1`, which “activity change, negative = inhibition” value is on record?
Its value is inactive: -2.43%.

For `COC(=O)c1cc(OC)c(OC)cc1NC(=S)NC(=O)c1ccco1`, which Potency is on record?
The Potency was inconclusive: 6.31 µM [inhibitor, partial curve].

For `CCOc1ccc(C=Nc2cccc3ncccc23)cc1`, which Potency is on record?
Its Potency is inconclusive: 7.94 µM [inhibitor, partial curve].

For `Cc1cc(N2CCN(C(=O)c3cccs3)CC2)c(F)cc1[N+](=O)[O-]`, which Potency is on record?
Its Potency is inconclusive: 5.62 µM [inhibitor, partial curve, poor fit].

With `COc1ccc(-c2ccc(C(C)=O)cc2)cc1[C@H]1[C@H]2C=CC[C@@H](C)[C@@H]2C(=O)N1Cc1ccccc1` as the compound, how does the Potency read?
Its Potency is inconclusive: 11.2 µM [inhibitor, partial curve, poor fit].

Which “activity change, negative = inhibition” value does the source give for `CC1Cc2cc(S(=O)(=O)N3CCCCC3C)ccc2N1C(=O)C1CCC1` (stereo not drawn) here?
Its value is inactive: -8.11%.

With `Cc1ccccc1CNc1ccc(C(CC(N)=O)NC(=O)c2ccc(Br)cc2)cc1[N+](=O)[O-]` (stereo not drawn) as the compound, how does the Potency read?
The Potency was inconclusive: 10 µM [inhibitor, partial curve, poor fit].

Which “activity change, negative = inhibition” value does the source give for `Fc1cccc(Cn2cc(C(=S)N3CCCCC3)c3ccccc32)c1` here?
The value was inactive: 7.21%.

Which “activity change, negative = inhibition” value does the source give for `Cc1ccc(SCC(=O)OCC(=O)NC(C)c2ccc(Br)cc2)cc1` (stereo not drawn) here?
The value was inactive: 7.58%.

Which Potency does the source give for `COc1ccc(CC(=O)Nc2cccc(S(=O)(=O)N3CCCC3)c2)cc1OC` here?
Its Potency is inconclusive: 31.6 µM [inhibitor, partial curve, poor fit].

Which Potency does the source give for `COc1ccc(NC(=O)c2ccc3c(c2)NC(=O)CS3)cc1S(=O)(=O)Nc1ccc(Br)cc1` here?
The Potency was inconclusive: 11.2 µM [inhibitor, single point].

Which “activity change, negative = inhibition” value does the source give for `COc1ccc(N2CCN(C(=O)CCN3C(=S)NC(C)(C)CC3C)CC2)cc1` (stereo not drawn) here?
The value was inactive: -7.48%.

For `O=C(N/N=C/c1ccccc1O)C(=O)Nc1ccccn1`, which Potency is on record?
The Potency was inconclusive: 11.2 µM [inhibitor, partial curve, poor fit].

With `Cc1cc(C)c2nc(Cl)c(CN(Cc3ccco3)C(=O)Nc3ccccc3C)cc2c1` as the compound, how does the Potency read?
The Potency was inconclusive: 3.98 µM [inhibitor, full curve].

For `COc1ccc(-c2cn3c(C)c(C(=O)Nc4cccc(NC(C)=O)c4)sc3n2)cc1`, which “activity change, negative = inhibition” value is on record?
The value was inactive: -5.59%.

For `COc1cc(Cl)ccc1OCc1cc(C(=O)N(C)CC2CCCCO2)no1` (stereo not drawn), which “activity change, negative = inhibition” value is on record?
Its value is inactive: -5.97%.

For `CCN(CC(=O)NCc1cccs1)C(=O)/C=C/c1ccc(OC)cc1OC`, which Potency is on record?
The Potency was inconclusive: 22.4 µM [inhibitor, single point].

For `CCOc1cc(N2CCOCC2)c(OCC)cc1NC(=O)CN1C(=O)NC(CC(C)C)C1=O` (stereo not drawn), which “activity change, negative = inhibition” value is on record?
The value was inactive: 9.96%.

Which Potency does the source give for `CCOc1ccc(N(CC(=O)Nc2ccc(OC)cc2)C2=NC3CS(=O)(=O)CC3S2)cc1` (stereo not drawn) here?
The Potency was inconclusive: 3.98 µM [inhibitor, partial curve, poor fit].

Which Potency does the source give for `CCC(C)Sc1ccc([C@H]2N[C@@](Cc3ccccc3)(C(=O)OC)[C@H]3C(=O)N(CC)C(=O)[C@@H]23)cc1` (stereo partly drawn) here?
Its Potency is inconclusive: 28.2 µM [inhibitor, single point].

Which Potency does the source give for `COC(=O)c1cc(=O)n(Cc2ccc3c(c2)OCO3)c(=Nc2ccccc2)s1` here?
Its Potency is inconclusive: 8.91 µM [inhibitor, partial curve, poor fit].

For `CC(=O)C1=C(c2ccccc2)N(C(C)=O)n2c(C)nnc2S1`, which Potency is on record?
The Potency was inconclusive: 7.94 µM [inhibitor, single point].

For `Cc1ccc(NC(=O)C(=O)c2c[nH]c3ccccc23)cc1`, which Potency is on record?
The Potency was inconclusive: 11.2 µM [inhibitor, partial curve, poor fit].

With `CC(C)(C)c1cc(CCC(=O)NCc2ccccn2)cc(C(C)(C)C)c1O` as the compound, how does the Potency read?
Its Potency is inconclusive: 12.6 µM [inhibitor, single point].

From PubChem BioAssay AID540303 (National Center for Advancing Translational Sciences (NCATS), 2011)
